Reference: the supplement of paper PMC6411743
± gives the standard deviation of the averaged measurements. This is one part of the list.

Protein sequences, listed by entry. Tags and fused reporters are not part of them. Lines headed by an entry give the natural chain unless they say otherwise; changes in a name come on top.
UniProt O14526: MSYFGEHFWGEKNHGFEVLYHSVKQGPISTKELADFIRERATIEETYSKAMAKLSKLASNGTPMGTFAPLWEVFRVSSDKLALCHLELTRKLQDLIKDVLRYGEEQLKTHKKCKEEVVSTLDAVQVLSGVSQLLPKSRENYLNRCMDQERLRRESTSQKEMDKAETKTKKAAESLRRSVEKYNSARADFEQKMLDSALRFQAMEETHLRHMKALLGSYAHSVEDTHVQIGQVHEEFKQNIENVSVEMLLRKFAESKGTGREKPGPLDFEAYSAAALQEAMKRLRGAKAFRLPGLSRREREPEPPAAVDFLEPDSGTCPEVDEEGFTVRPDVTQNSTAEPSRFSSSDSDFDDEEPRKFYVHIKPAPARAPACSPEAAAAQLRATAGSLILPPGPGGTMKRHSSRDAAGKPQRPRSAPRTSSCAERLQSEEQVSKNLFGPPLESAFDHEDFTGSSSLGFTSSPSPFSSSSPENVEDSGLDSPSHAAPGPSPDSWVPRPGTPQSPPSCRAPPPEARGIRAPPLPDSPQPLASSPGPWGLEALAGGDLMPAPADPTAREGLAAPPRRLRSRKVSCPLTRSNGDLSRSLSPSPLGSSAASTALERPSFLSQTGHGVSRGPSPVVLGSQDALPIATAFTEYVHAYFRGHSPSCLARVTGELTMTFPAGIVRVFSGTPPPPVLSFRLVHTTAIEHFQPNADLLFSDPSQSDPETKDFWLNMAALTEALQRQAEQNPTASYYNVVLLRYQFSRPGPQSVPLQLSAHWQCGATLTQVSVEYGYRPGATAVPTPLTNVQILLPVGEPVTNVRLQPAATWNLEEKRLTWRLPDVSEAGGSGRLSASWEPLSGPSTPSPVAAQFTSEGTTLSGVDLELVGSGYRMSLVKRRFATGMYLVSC
UniProt O95139, whole entry: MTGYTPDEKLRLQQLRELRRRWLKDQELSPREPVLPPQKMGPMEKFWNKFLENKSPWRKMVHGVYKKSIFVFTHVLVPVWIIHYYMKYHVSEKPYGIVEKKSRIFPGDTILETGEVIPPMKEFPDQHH
UniProt Q8WUH1: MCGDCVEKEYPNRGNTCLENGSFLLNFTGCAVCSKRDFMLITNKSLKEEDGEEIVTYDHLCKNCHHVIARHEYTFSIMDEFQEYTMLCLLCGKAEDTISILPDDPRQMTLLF
UniProt Q2M2I8: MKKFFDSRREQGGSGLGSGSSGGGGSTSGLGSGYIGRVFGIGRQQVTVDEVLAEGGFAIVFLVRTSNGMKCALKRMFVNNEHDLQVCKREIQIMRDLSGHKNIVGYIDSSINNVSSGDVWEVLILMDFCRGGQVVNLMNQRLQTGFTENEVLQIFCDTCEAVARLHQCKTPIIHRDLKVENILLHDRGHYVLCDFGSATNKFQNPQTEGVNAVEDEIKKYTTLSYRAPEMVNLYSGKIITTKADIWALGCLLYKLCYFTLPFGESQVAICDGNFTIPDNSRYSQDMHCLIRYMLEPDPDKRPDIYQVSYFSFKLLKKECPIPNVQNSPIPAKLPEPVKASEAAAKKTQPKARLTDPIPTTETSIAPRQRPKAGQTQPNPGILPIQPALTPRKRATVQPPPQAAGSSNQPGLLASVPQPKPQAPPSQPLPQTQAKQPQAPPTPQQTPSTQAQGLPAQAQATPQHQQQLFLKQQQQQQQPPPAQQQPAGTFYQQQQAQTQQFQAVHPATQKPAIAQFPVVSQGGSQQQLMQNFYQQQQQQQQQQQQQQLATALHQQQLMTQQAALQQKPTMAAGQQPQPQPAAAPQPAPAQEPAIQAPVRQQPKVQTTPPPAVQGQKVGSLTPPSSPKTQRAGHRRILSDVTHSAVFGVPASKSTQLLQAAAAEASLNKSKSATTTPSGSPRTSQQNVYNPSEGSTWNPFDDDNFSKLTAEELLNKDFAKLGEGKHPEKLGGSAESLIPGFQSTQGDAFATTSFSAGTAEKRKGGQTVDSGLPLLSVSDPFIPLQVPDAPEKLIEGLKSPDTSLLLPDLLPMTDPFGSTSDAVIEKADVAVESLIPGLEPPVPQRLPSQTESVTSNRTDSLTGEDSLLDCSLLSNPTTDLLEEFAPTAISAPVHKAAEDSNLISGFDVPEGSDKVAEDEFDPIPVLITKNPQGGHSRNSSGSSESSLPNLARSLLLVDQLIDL
UniProt Q9HB19: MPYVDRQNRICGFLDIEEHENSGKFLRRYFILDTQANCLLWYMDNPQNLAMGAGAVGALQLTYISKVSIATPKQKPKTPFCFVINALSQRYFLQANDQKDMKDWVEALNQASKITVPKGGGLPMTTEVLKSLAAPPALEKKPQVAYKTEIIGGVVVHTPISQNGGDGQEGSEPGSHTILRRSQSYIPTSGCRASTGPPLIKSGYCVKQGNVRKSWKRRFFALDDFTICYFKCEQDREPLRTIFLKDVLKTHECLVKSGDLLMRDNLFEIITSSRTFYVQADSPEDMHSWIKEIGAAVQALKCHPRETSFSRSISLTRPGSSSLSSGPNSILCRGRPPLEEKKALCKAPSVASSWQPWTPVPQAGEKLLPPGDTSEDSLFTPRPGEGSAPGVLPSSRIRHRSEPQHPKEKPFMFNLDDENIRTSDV
UniProt O15550, whole entry: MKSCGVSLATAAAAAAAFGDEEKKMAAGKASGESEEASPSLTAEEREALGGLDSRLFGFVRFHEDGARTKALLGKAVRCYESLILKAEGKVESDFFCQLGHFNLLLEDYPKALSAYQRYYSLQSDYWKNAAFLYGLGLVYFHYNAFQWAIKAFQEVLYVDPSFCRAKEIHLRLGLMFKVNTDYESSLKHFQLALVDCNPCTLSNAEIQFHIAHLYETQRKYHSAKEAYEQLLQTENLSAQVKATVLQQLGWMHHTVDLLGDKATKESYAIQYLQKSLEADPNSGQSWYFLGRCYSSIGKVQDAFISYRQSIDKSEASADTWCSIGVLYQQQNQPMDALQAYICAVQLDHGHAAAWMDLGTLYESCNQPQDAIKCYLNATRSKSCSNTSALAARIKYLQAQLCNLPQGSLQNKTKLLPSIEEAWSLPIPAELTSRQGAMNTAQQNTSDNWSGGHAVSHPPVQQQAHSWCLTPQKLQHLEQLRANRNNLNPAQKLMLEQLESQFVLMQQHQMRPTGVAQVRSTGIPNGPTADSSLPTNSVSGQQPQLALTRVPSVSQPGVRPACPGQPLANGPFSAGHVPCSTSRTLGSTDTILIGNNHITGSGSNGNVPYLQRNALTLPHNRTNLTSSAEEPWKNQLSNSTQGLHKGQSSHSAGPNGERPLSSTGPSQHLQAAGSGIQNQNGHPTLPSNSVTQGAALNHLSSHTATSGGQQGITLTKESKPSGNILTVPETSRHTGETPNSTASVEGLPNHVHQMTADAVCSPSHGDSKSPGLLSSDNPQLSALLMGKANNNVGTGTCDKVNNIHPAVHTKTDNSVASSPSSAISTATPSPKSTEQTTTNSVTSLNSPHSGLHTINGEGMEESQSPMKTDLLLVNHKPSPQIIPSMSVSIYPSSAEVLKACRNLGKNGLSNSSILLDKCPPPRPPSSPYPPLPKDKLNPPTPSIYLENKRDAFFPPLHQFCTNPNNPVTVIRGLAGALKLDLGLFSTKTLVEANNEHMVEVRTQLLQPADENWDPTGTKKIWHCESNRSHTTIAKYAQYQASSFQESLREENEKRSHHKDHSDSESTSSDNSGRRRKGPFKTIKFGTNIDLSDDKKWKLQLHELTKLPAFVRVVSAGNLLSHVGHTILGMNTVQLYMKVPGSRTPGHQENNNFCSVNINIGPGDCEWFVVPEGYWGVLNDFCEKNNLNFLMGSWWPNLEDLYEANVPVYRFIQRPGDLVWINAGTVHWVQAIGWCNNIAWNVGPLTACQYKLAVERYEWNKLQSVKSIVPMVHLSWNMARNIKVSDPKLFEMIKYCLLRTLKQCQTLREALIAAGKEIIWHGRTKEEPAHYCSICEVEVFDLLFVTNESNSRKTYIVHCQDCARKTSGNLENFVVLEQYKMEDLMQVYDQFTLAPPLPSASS
UniProt Q9UBK9, whole entry: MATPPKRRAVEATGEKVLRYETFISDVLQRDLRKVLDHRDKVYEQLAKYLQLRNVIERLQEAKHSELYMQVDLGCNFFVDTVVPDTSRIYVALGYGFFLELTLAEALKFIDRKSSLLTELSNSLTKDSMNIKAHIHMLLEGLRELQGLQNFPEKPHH
UniProt Q8IZQ5, whole entry, looked up: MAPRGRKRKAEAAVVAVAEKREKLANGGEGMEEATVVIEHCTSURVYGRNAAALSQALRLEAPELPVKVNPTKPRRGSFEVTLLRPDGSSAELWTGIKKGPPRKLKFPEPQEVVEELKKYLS
UniProt Q9NP64: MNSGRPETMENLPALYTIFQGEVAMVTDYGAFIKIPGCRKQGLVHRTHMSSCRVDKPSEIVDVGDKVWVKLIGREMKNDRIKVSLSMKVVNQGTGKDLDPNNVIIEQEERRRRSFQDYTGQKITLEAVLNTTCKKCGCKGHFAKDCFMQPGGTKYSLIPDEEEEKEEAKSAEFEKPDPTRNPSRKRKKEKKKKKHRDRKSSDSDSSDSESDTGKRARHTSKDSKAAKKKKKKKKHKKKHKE
UniProt Q9H3P2, whole entry: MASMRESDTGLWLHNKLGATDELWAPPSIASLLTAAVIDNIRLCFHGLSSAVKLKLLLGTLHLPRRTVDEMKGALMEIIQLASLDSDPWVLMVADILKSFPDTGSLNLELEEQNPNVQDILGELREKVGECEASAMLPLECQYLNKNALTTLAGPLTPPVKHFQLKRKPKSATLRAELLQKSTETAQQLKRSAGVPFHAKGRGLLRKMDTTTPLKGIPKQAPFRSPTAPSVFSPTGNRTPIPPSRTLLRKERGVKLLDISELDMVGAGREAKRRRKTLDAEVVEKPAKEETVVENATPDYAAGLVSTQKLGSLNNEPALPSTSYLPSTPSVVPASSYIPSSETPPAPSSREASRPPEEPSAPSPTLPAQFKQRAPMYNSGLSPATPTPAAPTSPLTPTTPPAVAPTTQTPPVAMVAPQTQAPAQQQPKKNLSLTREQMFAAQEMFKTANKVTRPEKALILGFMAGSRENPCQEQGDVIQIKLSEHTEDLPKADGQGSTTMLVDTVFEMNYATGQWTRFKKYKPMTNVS
UniProt Q5TBB1: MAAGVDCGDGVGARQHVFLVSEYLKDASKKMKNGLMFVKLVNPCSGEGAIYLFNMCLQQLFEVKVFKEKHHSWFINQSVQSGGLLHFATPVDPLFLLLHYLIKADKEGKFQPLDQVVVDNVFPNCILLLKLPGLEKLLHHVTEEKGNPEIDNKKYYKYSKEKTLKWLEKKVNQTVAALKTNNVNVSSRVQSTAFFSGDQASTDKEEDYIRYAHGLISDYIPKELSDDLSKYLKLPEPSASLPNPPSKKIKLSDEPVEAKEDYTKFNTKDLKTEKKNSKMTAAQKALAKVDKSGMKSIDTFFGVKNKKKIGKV
UniProt P08575: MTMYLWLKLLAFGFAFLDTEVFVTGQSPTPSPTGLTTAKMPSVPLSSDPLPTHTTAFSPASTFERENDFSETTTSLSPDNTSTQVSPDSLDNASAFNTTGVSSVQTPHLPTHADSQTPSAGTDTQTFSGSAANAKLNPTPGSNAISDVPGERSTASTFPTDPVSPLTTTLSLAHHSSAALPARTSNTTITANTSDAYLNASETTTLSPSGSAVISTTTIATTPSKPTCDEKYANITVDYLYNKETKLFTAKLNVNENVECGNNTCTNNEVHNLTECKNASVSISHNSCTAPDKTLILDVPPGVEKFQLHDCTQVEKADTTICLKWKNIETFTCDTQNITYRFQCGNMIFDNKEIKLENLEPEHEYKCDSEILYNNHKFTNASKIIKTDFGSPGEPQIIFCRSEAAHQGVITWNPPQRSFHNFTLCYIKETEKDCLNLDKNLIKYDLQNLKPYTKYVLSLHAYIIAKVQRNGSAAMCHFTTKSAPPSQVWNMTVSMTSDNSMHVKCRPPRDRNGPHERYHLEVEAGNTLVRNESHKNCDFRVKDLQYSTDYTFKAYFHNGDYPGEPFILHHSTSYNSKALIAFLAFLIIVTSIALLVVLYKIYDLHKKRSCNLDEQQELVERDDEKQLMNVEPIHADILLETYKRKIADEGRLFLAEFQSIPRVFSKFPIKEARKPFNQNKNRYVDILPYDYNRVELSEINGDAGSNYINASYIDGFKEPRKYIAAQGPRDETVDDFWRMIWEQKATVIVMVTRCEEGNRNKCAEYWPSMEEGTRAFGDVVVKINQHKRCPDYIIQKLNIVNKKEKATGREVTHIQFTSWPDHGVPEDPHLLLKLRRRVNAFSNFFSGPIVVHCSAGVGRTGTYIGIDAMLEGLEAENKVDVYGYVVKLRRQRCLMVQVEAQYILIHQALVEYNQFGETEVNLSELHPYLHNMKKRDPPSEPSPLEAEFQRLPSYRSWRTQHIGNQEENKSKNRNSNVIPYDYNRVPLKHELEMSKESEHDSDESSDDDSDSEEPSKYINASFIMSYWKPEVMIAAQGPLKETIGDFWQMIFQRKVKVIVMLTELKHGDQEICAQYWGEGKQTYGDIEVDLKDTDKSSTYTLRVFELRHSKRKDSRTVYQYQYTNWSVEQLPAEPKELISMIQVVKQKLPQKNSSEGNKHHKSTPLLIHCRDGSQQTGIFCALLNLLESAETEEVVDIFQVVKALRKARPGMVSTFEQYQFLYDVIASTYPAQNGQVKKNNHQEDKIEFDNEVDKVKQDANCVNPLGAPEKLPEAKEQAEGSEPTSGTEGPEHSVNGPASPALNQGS

Compound: Nc1nc2c(ncn2[C@@H]2O[C@H](COP(=O)(O)OP(=O)(O)OP(=O)(O)O)[C@@H](O)[C@H]2O)c(=O)[nH]1 [guanosine triphosphate]
Experiment: NP40-soluble protein abundance relative to vehicle (solubility fold change) (ratio); higher = more soluble protein in presence of GTP
In short: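 Each value is a fold change relative to the detergent-processed vehicle, calculated per replicate from vsn-normalised intensities. Jurkat crude lysate received eight concentrations (0.1 to 10 mM) for 10 min at room temperature and 3 min at 37 °C, then was solubilised in 0.8% NP40 with benzonase (60 min, 4 °C). The ultracentrifuged supernatant was TMT-labelled and run by LC-MS/MS in three independent experiments.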

Target	NP40-soluble protein abundance (concentration: 0.1mM)	NP40-soluble protein abundance (concentration: 0.5mM)	NP40-soluble protein abundance (concentration: 1mM)	NP40-soluble protein abundance (concentration: 2mM)	NP40-soluble protein abundance (concentration: 4mM)	NP40-soluble protein abundance (concentration: 6mM)	NP40-soluble protein abundance (concentration: 8mM)	NP40-soluble protein abundance (concentration: 10mM)
A0A0C3SFZ9|M0QZI3 and related entries (UniProt O14526)	1.07 ± 0.037	1.05 ± 0.035	1.02 ± 0.0047	1.02 ± 0.016	1.03 ± 0.017	0.984 ± 0.011	1.03 ± 0.036	1 ± 0.016
A0A087WZX2|O95139 (UniProt O95139)	0.936 ± 0.098	0.882 ± 0.1	1.06 ± 0.05	1.08 ± 0.029	1.03 ± 0.05	1.06 ± 0.037	0.972 ± 0.084	1.1 ± 0.1
A0A0C4DGJ7|Q8WUH1 and related entries (UniProt Q8WUH1)	1 ± 0.032	1.06 ± 0.043	1.03 ± 0.043	0.98 ± 0.048	0.961 ± 0.057	0.988 ± 0.021	1 ± 0.052	0.952 ± 0.035
CCDC88B (UniProt A6NC98)	1.02 ± 0.067	0.974 ± 0.059	1.02 ± 0.066	1 ± 0.036	0.948 ± 0.035	0.958 ± 0.034	1 ± 0.075	0.959 ± 0.067
A0A096LP25|Q2M2I8 and related entries (UniProt Q2M2I8)	0.972 ± 0.054	1 ± 0.071	1 ± 0.066	0.974 ± 0.099	0.968 ± 0.078	0.961 ± 0.077	0.985 ± 0.058	0.98 ± 0.074
A0A0A0MTP3|Q99550 and related entries (UniProt Q99550)	1.15 ± 0.081	1.04 ± 0.068	1.03 ± 0.021	1 ± 0.026	0.942 ± 0.098	0.863 ± 0.054	0.882 ± 0.098	0.862 ± 0.067
A0A0G2JK44|P25440 and related entries (UniProt P25440)	0.984 ± 0.086	0.945 ± 0.061	0.97 ± 0.076	1.01 ± 0.1	1.09 ± 0.06	1.14 ± 0.078	1.21 ± 0.1	1.25 ± 0.1
A0A087X038|A8K727 (UniProt Q9HB19)	0.938 ± 0.051	1 ± 0.083	0.943 ± 0.082	0.969 ± 0.065	0.984 ± 0.075	1.01 ± 0.091	1.03 ± 0.12	1.03 ± 0.095
A0A087X0R0|F5H6S1 and related entries (UniProt O15550)	1.07 ± 0.1	1.02 ± 0.091	1.1 ± 0.046	1.15 ± 0.083	1.13 ± 0.052	1.09 ± 0.093	1.19 ± 0.1	1.1 ± 0.1
A0A087X256|Q2M389 (UniProt Q2M389)	1.04 ± 0.058	1.01 ± 0.097	0.973 ± 0.048	0.975 ± 0.028	0.957 ± 0.028	0.973 ± 0.044	1.02 ± 0.068	0.889 ± 0.024
A0A0U1RRC9|P57075 and related entries (UniProt P57075)	1.01 ± 0.067	1.04 ± 0.12	0.905 ± 0.063	0.96 ± 0.066	0.977 ± 0.08	0.968 ± 0.093	0.938 ± 0.032	0.936 ± 0.064
A0A0A0MQZ6|O95478 (UniProt O95478)	1.01 ± 0.13	0.93 ± 0.035	0.943 ± 0.13	1.09 ± 0.12	1.23 ± 0.023	1.3 ± 0.11	1.16 ± 0.23	1.2 ± 0.18
A0A0U1RQF0|P49327 (UniProt P49327)	1.06 ± 0.056	1.07 ± 0.097	0.992 ± 0.075	1.02 ± 0.12	1.02 ± 0.093	0.993 ± 0.12	0.964 ± 0.055	0.932 ± 0.057
A0A0A6YYH1|H0YLI7 and related entries (UniProt Q7Z6K5+P59780+H0YLI7)	1.04 ± 0.012	1.07 ± 0.045	1.06 ± 0.099	1.03 ± 0.044	0.986 ± 0.04	1.01 ± 0.076	0.989 ± 0.017	0.992 ± 0.049
A0A0A0MSB4|Q6ZN50 and related entries (UniProt Q969R2)	1.08 ± 0.1	1.01 ± 0.045	1.15 ± 0.11	1.03 ± 0.081	1.05 ± 0.092	1.07 ± 0.073	1.08 ± 0.06	0.953 ± 0.062
A0A0C4DFR8|Q9UBK9 and related entries (UniProt Q9UBK9)	0.999 ± 0.083	1.04 ± 0.082	1 ± 0.035	1.05 ± 0.14	1.04 ± 0.17	1.03 ± 0.11	0.992 ± 0.07	1.07 ± 0.13
A0A087WYP2|Q8IZQ5 (UniProt Q8IZQ5)	0.927 ± 0.051	0.945 ± 0.096	1.04 ± 0.057	1.06 ± 0.094	1.07 ± 0.04	1.09 ± 0.14	1.07 ± 0.079	1.16 ± 0.042
A0A0G2JNB1|A0A0G2JNT7|A0A0G2JQF5|A0A0J9YVS1|I3L4J3 and related entries (UniProt Q7Z3B3)	1.08 ± 0.076	1.03 ± 0.06	1.09 ± 0.13	1.06 ± 0.054	1.09 ± 0.084	1.07 ± 0.07	1.11 ± 0.018	1.07 ± 0.06
A0A087WXF8|A0A087WXU5|A0A0D9SEW3|E7EPF0 and related entries (UniProt Q9NP64)	0.925 ± 0.077	1.03 ± 0.025	0.919 ± 0.016	0.912 ± 0.06	0.88 ± 0.049	0.94 ± 0.05	0.879 ± 0.074	0.981 ± 0.074
A0A0C4DFX9|Q9H3P2 (UniProt Q9H3P2)	0.913 ± 0.032	0.922 ± 0.033	0.989 ± 0.04	0.948 ± 0.055	0.952 ± 0.057	0.974 ± 0.059	0.988 ± 0.035	0.995 ± 0.038
A0A087WXR7|Q5TBB1 (UniProt Q5TBB1)	0.893 ± 0.11	0.906 ± 0.1	0.906 ± 0.11	0.867 ± 0.12	0.854 ± 0.11	0.88 ± 0.11	0.866 ± 0.13	0.866 ± 0.12
UniProt A4D1E9 and related entries	1.04 ± 0.087	1.06 ± 0.025	1.06 ± 0.051	1.11 ± 0.099	1.19 ± 0.14	1.19 ± 0.093	1.26 ± 0.14	1.25 ± 0.21
A0A0C4DGE4|A0A0J9YW33|F8W9Y0 and related entries (UniProt Q13277)	1.09 ± 0.057	1.16 ± 0.049	1.096 ± 0.0038	1.13 ± 0.062	1.11 ± 0.1	1.08 ± 0.063	1.18 ± 0.022	1.09 ± 0.073
A0A087WY82|Q9Y624 and related entries (UniProt Q9Y624)	1 ± 0.041	0.953 ± 0.1	0.979 ± 0.038	0.938 ± 0.059	0.851 ± 0.066	0.952 ± 0.01	0.858 ± 0.076	0.898 ± 0.011
A0A0A0MT22|P08575 and related entries (UniProt P08575)	0.925 ± 0.056	0.946 ± 0.045	0.927 ± 0.059	0.899 ± 0.05	0.878 ± 0.055	0.904 ± 0.052	0.897 ± 0.058	0.91 ± 0.061

An excerpt of these results, as comma-separated lines.
Target,NP40-soluble protein abundance (concentration: 0.1mM),NP40-soluble protein abundance (concentration: 0.5mM),NP40-soluble protein abundance (concentration: 1mM),NP40-soluble protein abundance (concentration: 2mM),NP40-soluble protein abundance (concentration: 4mM),NP40-soluble protein abundance (concentration: 6mM),NP40-soluble protein abundance (concentration: 8mM),NP40-soluble protein abundance (concentration: 10mM)
A0A087WXR7|Q5TBB1 (UniProt Q5TBB1),0.893 ± 0.11,0.906 ± 0.1,0.906 ± 0.11,0.867 ± 0.12,0.854 ± 0.11,0.88 ± 0.11,0.866 ± 0.13,0.866 ± 0.12
UniProt A4D1E9 and related entries,1.04 ± 0.087,1.06 ± 0.025,1.06 ± 0.051,1.11 ± 0.099,1.19 ± 0.14,1.19 ± 0.093,1.26 ± 0.14,1.25 ± 0.21
